Consider one substance from US20110229560A1.

By UniProt entry, the sequences of proteins in these tests, tags left out. Where a name states a change or a piece, a line headed by the entry shows the natural chain unless it says otherwise.
UniProt Q86WI3: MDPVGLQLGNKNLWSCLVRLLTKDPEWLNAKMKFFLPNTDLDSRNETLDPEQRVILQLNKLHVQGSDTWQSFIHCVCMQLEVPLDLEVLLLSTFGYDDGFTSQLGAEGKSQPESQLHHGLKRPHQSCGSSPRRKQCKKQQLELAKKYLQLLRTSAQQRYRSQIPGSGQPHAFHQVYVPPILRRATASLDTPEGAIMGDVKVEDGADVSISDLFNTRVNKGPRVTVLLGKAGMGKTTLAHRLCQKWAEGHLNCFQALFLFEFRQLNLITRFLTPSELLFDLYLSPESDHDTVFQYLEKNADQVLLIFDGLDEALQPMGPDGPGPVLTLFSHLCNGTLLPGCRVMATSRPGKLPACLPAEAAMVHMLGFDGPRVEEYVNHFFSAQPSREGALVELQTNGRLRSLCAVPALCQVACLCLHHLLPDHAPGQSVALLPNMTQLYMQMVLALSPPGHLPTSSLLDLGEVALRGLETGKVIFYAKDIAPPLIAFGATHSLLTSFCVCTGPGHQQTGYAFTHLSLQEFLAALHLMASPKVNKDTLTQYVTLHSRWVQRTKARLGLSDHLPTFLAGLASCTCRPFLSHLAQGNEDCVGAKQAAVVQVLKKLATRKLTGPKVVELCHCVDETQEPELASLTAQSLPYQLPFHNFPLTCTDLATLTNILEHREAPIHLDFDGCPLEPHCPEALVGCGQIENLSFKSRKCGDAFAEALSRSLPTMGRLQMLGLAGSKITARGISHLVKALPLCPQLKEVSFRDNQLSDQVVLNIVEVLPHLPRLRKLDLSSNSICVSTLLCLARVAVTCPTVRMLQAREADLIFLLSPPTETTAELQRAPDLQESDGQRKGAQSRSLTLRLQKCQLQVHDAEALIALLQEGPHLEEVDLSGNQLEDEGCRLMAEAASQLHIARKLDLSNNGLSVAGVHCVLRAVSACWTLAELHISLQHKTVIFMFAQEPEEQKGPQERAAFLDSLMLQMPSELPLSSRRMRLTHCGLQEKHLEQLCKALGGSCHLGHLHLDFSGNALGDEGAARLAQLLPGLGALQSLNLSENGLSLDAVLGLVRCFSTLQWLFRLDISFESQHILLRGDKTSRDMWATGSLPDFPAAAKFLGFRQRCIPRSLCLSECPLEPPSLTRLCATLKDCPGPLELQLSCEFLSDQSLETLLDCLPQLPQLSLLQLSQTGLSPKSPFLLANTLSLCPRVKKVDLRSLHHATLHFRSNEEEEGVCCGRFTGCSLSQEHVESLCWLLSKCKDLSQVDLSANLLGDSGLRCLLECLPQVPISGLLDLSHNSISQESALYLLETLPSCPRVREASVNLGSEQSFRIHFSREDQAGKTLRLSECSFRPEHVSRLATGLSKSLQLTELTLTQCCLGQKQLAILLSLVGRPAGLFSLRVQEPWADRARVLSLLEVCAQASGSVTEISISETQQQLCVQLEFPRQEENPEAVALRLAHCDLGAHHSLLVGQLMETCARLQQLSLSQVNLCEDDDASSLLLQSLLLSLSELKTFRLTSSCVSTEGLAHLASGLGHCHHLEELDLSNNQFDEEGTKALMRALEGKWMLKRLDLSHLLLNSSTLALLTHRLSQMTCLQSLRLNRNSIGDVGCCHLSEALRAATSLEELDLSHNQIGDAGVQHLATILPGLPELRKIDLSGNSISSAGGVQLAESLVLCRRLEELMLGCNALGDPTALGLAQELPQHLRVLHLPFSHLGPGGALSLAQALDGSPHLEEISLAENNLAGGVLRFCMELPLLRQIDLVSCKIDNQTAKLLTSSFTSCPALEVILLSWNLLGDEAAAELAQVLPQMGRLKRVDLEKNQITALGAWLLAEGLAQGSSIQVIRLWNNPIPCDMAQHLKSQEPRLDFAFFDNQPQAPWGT

The target in this test is T1, Flag-tagged IKKβ (full length) (UniProt O14920).
T1 sequence (looked up): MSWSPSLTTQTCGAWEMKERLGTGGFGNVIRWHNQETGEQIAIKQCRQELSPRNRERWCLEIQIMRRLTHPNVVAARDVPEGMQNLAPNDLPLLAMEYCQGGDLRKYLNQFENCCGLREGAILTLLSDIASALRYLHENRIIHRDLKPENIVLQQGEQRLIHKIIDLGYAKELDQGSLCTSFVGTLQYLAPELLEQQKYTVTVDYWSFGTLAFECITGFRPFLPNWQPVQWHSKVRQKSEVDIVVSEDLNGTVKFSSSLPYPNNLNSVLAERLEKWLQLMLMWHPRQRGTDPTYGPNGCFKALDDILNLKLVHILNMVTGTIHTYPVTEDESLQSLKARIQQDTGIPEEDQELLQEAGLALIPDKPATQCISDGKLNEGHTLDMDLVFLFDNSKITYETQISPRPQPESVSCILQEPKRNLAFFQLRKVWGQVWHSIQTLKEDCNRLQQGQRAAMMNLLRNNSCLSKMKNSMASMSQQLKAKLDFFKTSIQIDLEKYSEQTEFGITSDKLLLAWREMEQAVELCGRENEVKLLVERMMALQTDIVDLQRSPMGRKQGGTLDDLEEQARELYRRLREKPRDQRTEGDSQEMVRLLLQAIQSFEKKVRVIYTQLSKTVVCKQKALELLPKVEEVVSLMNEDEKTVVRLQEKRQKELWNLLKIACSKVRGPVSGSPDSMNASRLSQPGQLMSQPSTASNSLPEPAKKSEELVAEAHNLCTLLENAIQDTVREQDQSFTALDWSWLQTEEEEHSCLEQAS
Briefly: co-IP (anti-Flag beads) and Western blot (anti-HA), transfected 293T cells.

Results are given in words; binding and its absence hold for the method and conditions named. In cells and extracts the contact can be indirect. Some results given as binding are weak or reduced against the parent protein; the word gives no strength. Sequences can lack the tags named with a protein.

In the case of “HA-tagged NLRC5 (human NLRC5, full length) (from UniProt Q86WI3 1-1866)”, the binding entry is given as “binds”.
